Laboratory results: PMC11979000
Results are given in words; binding and its absence hold for the method and conditions named. In cells and extracts the contact can be indirect. Here binding means that the protein was enriched with, or labelled near, the bait; the list need not be complete.

By UniProt entry, the sequences of proteins in these tests, tags left out.
UniProt Q9WTQ5: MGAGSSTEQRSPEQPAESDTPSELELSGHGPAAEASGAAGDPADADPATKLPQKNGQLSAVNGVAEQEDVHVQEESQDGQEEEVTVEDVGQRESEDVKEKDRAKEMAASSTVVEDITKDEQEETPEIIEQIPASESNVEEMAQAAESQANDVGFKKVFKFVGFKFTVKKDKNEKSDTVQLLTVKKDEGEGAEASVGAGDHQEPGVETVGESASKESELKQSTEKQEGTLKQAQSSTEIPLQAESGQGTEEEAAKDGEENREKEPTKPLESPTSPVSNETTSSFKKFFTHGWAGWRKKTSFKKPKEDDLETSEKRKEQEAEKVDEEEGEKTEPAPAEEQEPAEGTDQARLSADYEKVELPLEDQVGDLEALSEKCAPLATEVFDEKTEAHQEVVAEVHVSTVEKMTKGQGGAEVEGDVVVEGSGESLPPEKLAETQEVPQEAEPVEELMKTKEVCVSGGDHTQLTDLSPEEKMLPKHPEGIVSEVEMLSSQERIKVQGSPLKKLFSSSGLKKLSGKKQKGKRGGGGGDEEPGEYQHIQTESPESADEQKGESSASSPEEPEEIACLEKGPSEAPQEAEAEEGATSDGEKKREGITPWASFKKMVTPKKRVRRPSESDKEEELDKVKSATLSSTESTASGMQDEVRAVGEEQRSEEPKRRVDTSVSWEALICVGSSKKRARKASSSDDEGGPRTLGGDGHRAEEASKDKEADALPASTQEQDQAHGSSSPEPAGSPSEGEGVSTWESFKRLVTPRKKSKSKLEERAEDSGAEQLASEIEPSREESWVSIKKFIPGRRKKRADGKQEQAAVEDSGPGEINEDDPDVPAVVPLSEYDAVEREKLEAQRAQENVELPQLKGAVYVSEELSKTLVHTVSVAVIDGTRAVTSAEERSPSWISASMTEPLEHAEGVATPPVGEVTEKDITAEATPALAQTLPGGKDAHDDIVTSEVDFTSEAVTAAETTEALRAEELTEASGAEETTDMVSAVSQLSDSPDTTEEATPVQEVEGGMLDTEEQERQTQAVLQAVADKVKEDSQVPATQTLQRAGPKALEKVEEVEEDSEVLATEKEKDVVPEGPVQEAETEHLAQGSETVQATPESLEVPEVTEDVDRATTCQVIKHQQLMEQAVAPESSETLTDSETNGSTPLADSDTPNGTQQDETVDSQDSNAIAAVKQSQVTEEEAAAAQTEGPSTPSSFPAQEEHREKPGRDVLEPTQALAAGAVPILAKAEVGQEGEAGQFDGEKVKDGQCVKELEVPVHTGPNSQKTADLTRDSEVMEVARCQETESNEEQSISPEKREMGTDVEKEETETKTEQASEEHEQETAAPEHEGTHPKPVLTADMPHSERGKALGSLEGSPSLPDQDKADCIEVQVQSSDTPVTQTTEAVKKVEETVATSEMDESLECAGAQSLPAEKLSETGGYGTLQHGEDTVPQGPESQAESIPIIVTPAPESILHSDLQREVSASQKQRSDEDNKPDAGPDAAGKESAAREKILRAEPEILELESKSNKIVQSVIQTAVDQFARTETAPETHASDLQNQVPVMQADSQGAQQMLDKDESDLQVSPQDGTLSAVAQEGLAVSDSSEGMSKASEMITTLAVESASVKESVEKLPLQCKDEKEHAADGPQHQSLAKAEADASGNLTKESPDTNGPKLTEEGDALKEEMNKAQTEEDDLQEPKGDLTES
UniProt P18762: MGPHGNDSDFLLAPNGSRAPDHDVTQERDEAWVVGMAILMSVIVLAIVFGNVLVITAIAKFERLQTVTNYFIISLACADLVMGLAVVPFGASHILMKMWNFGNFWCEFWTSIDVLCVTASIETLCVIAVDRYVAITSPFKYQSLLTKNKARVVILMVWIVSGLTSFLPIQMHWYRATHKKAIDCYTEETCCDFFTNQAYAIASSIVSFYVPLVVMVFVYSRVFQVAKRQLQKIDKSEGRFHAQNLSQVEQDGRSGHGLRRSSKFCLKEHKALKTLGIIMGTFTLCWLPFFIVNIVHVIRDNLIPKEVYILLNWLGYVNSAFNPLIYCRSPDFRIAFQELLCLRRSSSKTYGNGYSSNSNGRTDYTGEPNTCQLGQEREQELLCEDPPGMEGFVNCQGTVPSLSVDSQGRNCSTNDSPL
UniProt Q9DBC7: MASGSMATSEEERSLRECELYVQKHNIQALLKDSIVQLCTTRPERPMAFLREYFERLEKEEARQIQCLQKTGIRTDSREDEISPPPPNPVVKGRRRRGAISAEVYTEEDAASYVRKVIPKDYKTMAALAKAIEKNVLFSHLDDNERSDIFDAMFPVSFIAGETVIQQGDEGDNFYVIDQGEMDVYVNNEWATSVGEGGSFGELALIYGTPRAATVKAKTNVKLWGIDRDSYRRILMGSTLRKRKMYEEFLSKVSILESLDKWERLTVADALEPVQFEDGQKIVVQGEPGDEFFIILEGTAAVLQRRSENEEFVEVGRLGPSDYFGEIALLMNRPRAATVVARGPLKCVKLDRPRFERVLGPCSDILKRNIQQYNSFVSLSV
UniProt P12367: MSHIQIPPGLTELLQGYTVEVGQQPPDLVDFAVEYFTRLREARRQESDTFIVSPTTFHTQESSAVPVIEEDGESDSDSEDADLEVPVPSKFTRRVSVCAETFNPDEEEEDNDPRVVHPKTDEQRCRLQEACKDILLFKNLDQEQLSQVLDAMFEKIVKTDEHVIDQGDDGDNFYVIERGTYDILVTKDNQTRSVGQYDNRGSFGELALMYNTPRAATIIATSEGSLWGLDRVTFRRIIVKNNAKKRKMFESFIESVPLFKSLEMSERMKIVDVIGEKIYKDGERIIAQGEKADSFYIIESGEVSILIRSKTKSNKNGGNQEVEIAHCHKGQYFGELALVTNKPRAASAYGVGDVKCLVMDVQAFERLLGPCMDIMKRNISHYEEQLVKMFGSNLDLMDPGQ

Biological target: A-kinase anchoring protein 12 (AKAP12), mouse (mouse (endogenous in mouse hepatocytes and liver)) (UniProt Q9WTQ5)
Experiment: affinity purification with mass spectrometry; AKAP12 antibody crosslinked to protein A/G beads; immunoprecipitation from hepatocytes isolated from pair-fed (control) or alcohol-fed mouse liver; nano LC-MS/MS label-free quantification

| binding | Molecule |
| --- | --- |
| binds | Beta-2 adrenergic receptor, mouse (from UniProt P18762 1-418) |
| binds | Dual specificity mitogen-activated protein kinase kinase 2, mouse (from UniProt Q63932 1-401) (enzyme) |
| binds | Protein kinase type I-alpha regulatory subunit, mouse (from UniProt Q9DBC7 1-381) |
| binds | Protein kinase type II-alpha (PKA regulatory subunit RII-alpha), mouse (from UniProt P12367 1-401) |
| binds | Patatin-like phospholipase domain-containing protein 2, mouse (enzyme, UniProt Q8BJ56 1-486) MFPRETKWNISFAGCGFLGVYHIGVASCLREHAPFLVANATHIYGASAGALTATALVTGACLGEAGANIIEVSKEARKRFLGPLHPSFNLVKTIRGCLLKTLPADCHERANGRLGISLTRVSDGENVIISHFSSKDELIQANVCSTFIPVYCGLIPPTLQGVRYVDGGISDNLPLYELKNTITVSPFSGESDICPQDSSTNIHELRVTNTSIQFNLRNLYRLSKALFPPEPMVLREMCKQGYRDGLRFLRRNGLLNQPNPLLALPPVVPQEEDAEEAAVVEERAGEEDQLQPYRKDRILEHLPARLNEALLEACVEPKDLMTTLSNMLPVRLATAMMVPYTLPLESAVSFTIRLLEWLPDVPEDIRWMKEQTGSICQYLVMRAKRKLGDHLPSRLSEQVELRRAQSLPSVPLSCATYSEALPNWVRNNLSLGDALAKWEECQRQLLLGLFCTNVAFPPDALRMRAPASPTAADPATPQDPPGLPPC |
